Measured values published in ChEMBL document CHEMBL2331377, “Spirocyclic compounds, potent CCR1 antagonists” (Bioorg Med Chem Lett, 2013).

Experiment: in vitro
Settings: human, Caco-2

Question: With `CC(=O)Nc1ccc(O)cc1OC[C@@H](O)CN1CCC2(CC1)Cc1cc(Cl)ccc1O2` as the compound, how does the Papp read?
Answer: 13.5 ×10⁻⁶ cm/s
